EP4847489A1, “IMIDAZOLIDINEDIONE HDAC INHIBITOR, AND PREPARATION METHOD THEREFOR AND USE THEREOF” (dated 2026)
The source holds more than one record for some entries. The other results are left out here. There may be further records. Values given together appear to be repeats (runs, samples, wells or individuals).

Sequences of proteins named here, by UniProt entry; tags and fusion partners are left off.
UniProt Q13547, whole entry: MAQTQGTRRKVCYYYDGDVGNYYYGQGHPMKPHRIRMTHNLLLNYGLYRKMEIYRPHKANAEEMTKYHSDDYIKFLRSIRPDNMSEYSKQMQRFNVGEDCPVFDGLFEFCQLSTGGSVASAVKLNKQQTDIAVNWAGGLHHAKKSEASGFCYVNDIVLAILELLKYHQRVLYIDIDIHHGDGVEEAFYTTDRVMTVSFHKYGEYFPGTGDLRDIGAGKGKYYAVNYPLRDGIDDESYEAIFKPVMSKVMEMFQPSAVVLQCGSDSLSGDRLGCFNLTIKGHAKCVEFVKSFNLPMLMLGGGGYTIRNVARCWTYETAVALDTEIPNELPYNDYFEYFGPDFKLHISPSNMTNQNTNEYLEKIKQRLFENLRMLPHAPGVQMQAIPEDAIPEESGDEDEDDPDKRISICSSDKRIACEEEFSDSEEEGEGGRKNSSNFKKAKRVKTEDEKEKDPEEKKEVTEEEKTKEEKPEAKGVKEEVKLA

Molecular target: HDAC1 (Homo sapiens, UniProt Q13547)
Test: HDAC inhibition assay (HDAC1 inhibitory activity)
Details: read-out: HDAC1 inhibitory activity (IC50)

IC50: 13 nM and 3.6 nM
SMILES: COc1ccccc1/C=C1\NC(=O)N(CCCCCCCC(=O)NO)C1=O
